Reference: PubChem BioAssay AID1347426 (Functional Genomics Laboratory (NCATS/FGL), 2020)
In all, about 31,000 sequences went through this assay and about 1,400 (4.5%) were called active.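 Rule for the calls: active = median seed-adjusted z-score above 1 or below -1; inactive = the rest.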 The list shows a part of the results.

Experiment: Novel Modifiers of Survival Motor Neuron (SMN) Protein: Gene Identification via Genome-wide siRNA Screen;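 note: luminescence tracks full-length SMN protein made from the SMN2 reporter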
Settings: HEK293T SMN2-luciferase reporter, siRNA knockdown, 72 h; actives lie on both sides
Outline: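 siRNA screen, 10418 genes ×3 siRNAs; 1 pmol/well, lipid reverse transfection into HEK293T SMN2-luc reporter line. 72 h, 37 °C, 5% CO2; ONE-Glo readout. Data: neg-ctrl normalized, log10, MAD; hit = MAD >1.0 or < -1.0.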

Sequence	median seed-adjusted z-score
GACAAGUGAUAGUGAAUGATT against ZNF35	inactive: -0.332
ACCUGAUUCUGCAAAGAUATT against LILRB4	inactive: -0.104
UCACCUUUGUCAUCUAUGATT against NECAB2	inactive: -0.286
GCCAGAAUGCAUGACUUCATT against BRF1	inactive: -0.261
GGACUACUUUGGUGAGUGUTT against AP3M1	inactive: 0
CGAAGGUGCUUGCAUUGGATT against MEGF8	inactive: 0.0906
GGGACUAACAUGUACAACATT against PCDH24	inactive: 0.345
GGAGUUUCCAGAGAUCACATT against UPRT	inactive: -0.441
UCACCUCAUUUCUAAGAAATT against OVOL1	inactive: -0.0414
GCUCUUUGCCGUUUCUAAUTT against SLC29A2	inactive: -0.0569
UACUGUCUCUAGUCUUUUUTT against SEC11B	active: 1.04
GUCCUUGACAUGAAGCGUATT against GSTM5	inactive: -0.861
GGAUUUGAGCAAUGCUGUATT against RAD9B	inactive: 0.0879
GAACCAUCGUUUUACAAGATT against ACVR1B	inactive: 0.201
GCCUCGAUUCUCUACACUATT against PTPRT	inactive: -0.323
CAAUGUUCCUUUGCUAGUUTT against CTNNA2	inactive: -0.0686
GCAGUAUAUUACAAACAAATT against NAT2	inactive: -0.0495
CUACCUCUCUUGUUUGGAATT against TRIP13	active: 1
GGUGGAUAAGGAUUUGGAUTT against SOX11	inactive: 0.02
CGAGUUUGACAUCAAUGAATT against ECSIT	inactive: -0.116
GAUGUAUCCAGUUAAAGCATT against NPHP1	inactive: -0.0667
GGACAAGAAUUUUGCCUUUTT against U2AF2	active: 2.14

Quoted at random: 6 records from the list
Sequence	median seed-adjusted z-score
CUACCUCUCUUGUUUGGAATT against TRIP13	active: 1
UACUGUCUCUAGUCUUUUUTT against SEC11B	active: 1.04
GAUGUAUCCAGUUAAAGCATT against NPHP1	inactive: -0.0667
UCACCUUUGUCAUCUAUGATT against NECAB2	inactive: -0.286
GCCUCGAUUCUCUACACUATT against PTPRT	inactive: -0.323
GAACCAUCGUUUUACAAGATT against ACVR1B	inactive: 0.201

Additional entries:

Sequence	median seed-adjusted z-score
UGAUCGAGGUGAACAAUGUTT against AVPR1A	inactive: 0
GGCCCAAGCUUCAACAGCATT against DNASE2	active: -1.23
GGAAGAAAGCCGUAAUGAATT against GK2	inactive: 0
AAUCAGAUUCUCAACCUAATT against KRT10	inactive: 0.493
GAACCUAUCUGAUCGGCAATT against RFX3	inactive: 0.17
GGGCUUUACAUGUAGGUAUTT against ZNF607	inactive: 0.857
GGAACAAAGUCGCCGUCAATT against CSK	inactive: 0.993
CAGUGAGGCUGUUCUCGAATT against LIMCH1	inactive: 0.125
CCACGAGACGGGAACAUUATT against MDM4	inactive: 0.0554
GCAACACGUUUUUCCGCAATT against SV2A	inactive: 0.138
CAAUCAUCUUCGUCACCAATT against CCL16	inactive: -0.308
GGAUGAUAUGGGACCAUAATT against PTPRZ1	active: 1.73
GGCUGUUGGUGCUAUAGCATT against CLCN5	inactive: 0.856
GGUUCAUGACAGACAAGAATT against SHMT1	inactive: 0.179
GCAAAUAUAAGGUCCCUGATT against GSTT1	inactive: 0.0781
GAACCCAGGAUUAAUAAAATT against EHF	inactive: 0.581
GCAACUUAAUCUUAUCCUUTT against TTC13	inactive: 0.0363
AAGUCGGAAUAGAAUGGAATT against COX7B	active: -1.16
CAUCUCGAAUUGAACCGAATT against LRIG3	inactive: 0.882
AGAGCUCAUUAACAUGUAUTT against PEX6	inactive: -0.281
CAGUAGAUGCUCAAGUAUATT against DNAJC24	inactive: -0.0166
GAAGAUUGCGGGUCAAUGATT against DLG1	inactive: 0.0642

Sequence	median seed-adjusted z-score
GGAACAUGGAAGACAAGGATT against ZNF263	inactive: 0.397
GGUUAAUAUCUGGACAAUUTT against SC5DL	inactive: -0.439
CAACUGGAGUUAACACCGATT against ATP2A2	inactive: 0.314
GAACCUCAAGAAUCGAACATT against REV1	inactive: -0.294
GGAAGAACGUCUUGCACAATT against EEF1B2	inactive: 0.388
AGUUAUUGCUACUUCAGAATT against CX3CR1	inactive: -0.292
GCCUGCUGAUCCACCCUAATT against UBE2S	inactive: 0.348
GAACAAGUGGAUUGGUGAATT against RHOH	inactive: 0.443
CGAGGACCGGCAGUACAAATT against PRMT1	inactive: -0.596
GGCUCUAAUAAAUAUGGAATT against PURG	inactive: 0.448
GCAUACAGGAGAUCAACAATT against ADCY8	inactive: 0.103
GGAAGGCUGCGGAAAAGAATT against PLD3	inactive: 0.066
GGUCACCUAUCAUCCUUAATT against AGXT2L1	inactive: 0.285
GGCUAUGCAGGUCCACUGUTT against DDR1	inactive: -0.166
GCAGUUCACCCAUCCAGUATT against THY1	active: -1.1
UCAAUAAACUGCACGAAUATT against HS3ST1	active: 1.21
CCGUUGAAAAGGGAGGCAATT against CYCS	inactive: -0.679
AGCCUGCGGUUUUCUGUAUTT against SYT12	inactive: -0.329
CGGAUUCCAGGAAUGCUAATT against EIF5B	active: 1.68
GCAUUGCUCUGGUCACCAATT against GPRC5D	inactive: -0.038
GCCUGGAUAACAUCACUGATT against AIM2	inactive: 0.0646
GGUUCGACAGGGACUCAAATT against GLRX3	inactive: 0.0784

Sequence	median seed-adjusted z-score
GCAUAUGGUUGUUCAUCGATT against PRKAA2	inactive: -0.194
AGUUCACGUGAGCACGGUATT against HOXB4	inactive: 0.149
GACUUUUCAGAUCACCAAATT against USP39	inactive: 0.821
CCAGCUUCCCAUUAUCCCATT against CD248	inactive: -0.0191
GCAAUUUGGUGUAUCGCUUTT against PRSS23	inactive: -0.77
CACUGGAUGUAGAACUACATT against DNAJC6	inactive: -0.265
CCAUCAUGCUUGAUCGGGATT against SLC4A4	inactive: 0.43
GGAGUAGAGUUUGCAACAATT against RAB11A	inactive: -0.0554
CGGCCCUACUAAUUGGGAATT against SEMA4D	inactive: 0.309
GAAGAGCCGUAUGAUCGAATT against ZNF432	inactive: -0.124
GACUGUGGAAUGAAGUAUATT against RAB39	inactive: -0.408
GGUCUAGCCUUACACCUCATT against RAB3GAP2	inactive: 0.0583
GGGACACUCCUAUCAACUATT against ST18	inactive: 0.0762
CCAGUAAGUGUACAGCUUATT against ANTXR2	inactive: -0.727
CCAUCAAGCUCAUAAGCAATT against MAST1	inactive: -0.0897
GACUCGCUCAAGUACGAAATT against TTLL7	inactive: 0.00109
GAACCGCAGAGCUAAGCAATT against PROP1	inactive: 0.303
AGGAGUGACUGAACUUAGATT against SPAG16	inactive: -0.0252
GCAGAUCUCUGUUCUCUCATT against SOX21	inactive: -0.412
GCAGUGGAGAAAACUAUGATT against PLG	inactive: 0.00473
UGACAAGUCUGCCCACCAATT against DNAJC4	inactive: 0.566
GGCGAGAUCUUUAUACGCATT against ZNF224	inactive: 0.0073

Sequence	median seed-adjusted z-score
CCUGCGCUAUCUGACCUUCTT against ERN1	inactive: 0.684
GCUGGAACGUGGUCAAUGUTT against AFP	inactive: -0.144
GGGCAGAUCUUCAAUCAGUTT against GH2	inactive: 0.374
GGUUUUAACUGGAACUGGATT against HIF1AN	inactive: -0.0315
CCUCCUUUCUGAUCAGGGATT against BARHL1	inactive: 0.397
AGAAAGUUCCGGUCCUAUATT against ERN2	inactive: 0.526
GCCCUGCAAUAAUAACUGUTT against SLCO3A1	inactive: -0.0387
CAAUAGGAUUAUCAUGAGATT against MRS2	active: 1.38
CCUUUAGCACGGAUAGUUUTT against ACAT2	active: 1.25
CCUUGAAUCCCGAAUUCAATT against RPH3A	inactive: 0.232
CCAGAGAGGUGGUGGAAUATT against B3GNT3	inactive: 0.439
UGUCUGCUCCUGACCCUAATT against CYP2F1	inactive: 0
GGAAAAACCUUCAACCGAATT against ZNF329	inactive: -0.0877
GGUCCGUGACGAGAAGUUATT against RAB4A	inactive: 0.0022
GAGCUGAACUUGUCAUUCUTT against RANGAP1	inactive: -0.0379
CCAACAACAUAGCAAUUAATT against NFS1	inactive: 0.141
GCUCAGCUGUUUGCGUUGATT against USP14	inactive: 0
GAAACAAAGUCUUAAUAUUTT against ATP1A4	inactive: 0.116
CAACUUGCCUUGUUAACCATT against ZDHHC2	inactive: 0.133
GCAGUUGUCUACGCCCAGATT against CNTFR	inactive: 0
